Primary screen of a compound library

Measurements from “University of Dundee, Small-Polar-MMV Screening Library” (2021), ChEMBL document CHEMBL3988442.

Values are the deposited “Percent Effect”, in %.
How 0% and 100% were set is not recorded. Most values in the screen are low, and negative values occur.
The compounds are a random part of those screened.
Two or more numbers in one place are separate tests of the same structure; such repeats can differ widely.

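Viability assay of Plasmodium falciparum sporozoites; the read-out is not stated. The concentration is filed as 10 mM, unlikely as a test dose, so the dose is not known. The record gives no direction; compounds that gave an IC50 in retests scored well above the rest, so higher reads as lower viability. Strong results were mostly tested again. About 34,000 compounds were tested under these conditions; 0.84% (about 280) showed 50% or more at least once.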

| compound | percent effect |
|---|---|
| `O=C(O)C(F)(F)F.[H][C@@]12C[C@H](C(=O)N3CCCCO3)CN(Cc3ccccn3)[C@]1([H])CCO2` | 2.491% |
| `Cc1c(C(=O)NC2(C#N)CCSC2)nnn1-c1ccccc1Cl` (stereo not given) | 7.617% |
| `CCOCC(=O)Nc1cccc(Oc2ccccn2)c1` | -4.657% |
| `O=C(O)C(F)(F)F.[H][C@@]12COC[C@@H](CC(=O)N3CCCCO3)[C@]1([H])CN(Cc1c(C)noc1C)C2` | -10.91% |
| `CC(=O)N1CCC2(CCN(C(=O)c3ccc(F)c(C(F)(F)F)c3)CC2)C1` | -18.49% |
| `Cc1ccc(NCc2ccco2)cc1N1CCOC1=O` | -27.25% |
| `COc1ccccc1Cc1cc(O)nc(NC(C)CN(C)C)n1` (stereo not given) | 11.35% |
| `Cn1cccc1C(=O)N1CCc2ccc(=O)n(C)c2CC1` | 5.877% |
| `Cc1cc(C)n(CC(=O)N2CCC(c3cc4cccnc4[nH]3)CC2)n1` | 10.01% |
| `CC(C)c1nccc(CN2CCC(O)(CN3CCCCC3)C2)n1` (stereo not given) | 9.077% |
| `O=C(Cc1ccon1)N(CCC(F)(F)F)C1CCCC1` | -8.452% |
| `COc1ccc(CCCNCc2c(C)nn(C)c2N(C)C)cc1OC` | 10.05% |
| `O=C(NC1CCCc2c1[nH]c1ccc(F)cc21)c1n[nH]c2c1CCC2` (stereo not given) | -0.8242% |
| `COc1cc2c(cc1CN1CCc3sccc3C1C)OCO2` (stereo not given) | -0.3875% |
| `Cc1nnsc1C(=O)N1CCC2(CC1)c1nc[nH]c1CCN2CC(C)C` | 0.8584% |
| `COc1cnc(N2CCC(Oc3ccccc3OC)(C(=O)O)CC2)nc1` | -4.771% |
| `COCCn1ccc2cc(NC(=O)N(C)C(C)CSC)ccc21` (stereo not given) | -7.774% |
| `COc1ncccc1NC(=O)N(Cc1ccccn1)C1CC1` | 3.989% |
| `Cc1cc(C)cc(CN2CCN(Cc3cccc(CCN)c3)CC2=O)c1` | -10.92% |
| `CC(C)(C)C(=O)N1CCCc2c(cnn2-c2ccccc2)C1` | 0.4183% |
| `Cc1ccc(-c2nc(CCNC(=O)CCN3CCOC3=O)co2)cc1` | -8.333% |
| `CC(NC(=O)COCC(F)(F)F)c1nnc2n1CCCCC2` (stereo not given) | -1.943% |
| `Cc1cccc2[nH]c(C3CCN(C(=O)c4cnc[nH]c4=O)CC3)nc12` | 15% |
| `O=c1[nH]cc(N2CCCCC2)c(=O)[nH]1` | 20.43% |
| `COc1cccc(CN2CCC3(CCN(C(=O)[C@H]4CCCO4)CC3)C2)c1.O=C(O)C(F)(F)F` | 10.47% |
| `Cc1cnn(CC(C)NCc2ccc(C#N)cc2)c1` (stereo not given) | -4.912% |
| `CNC(=O)Cn1c(-c2ccco2)nn(-c2ccccc2OC)c1=O` | -7.846% |
| `COCCN(C)Cc1ccc(OC)c(OC(F)F)c1` | -11.12% |
| `CCOC1CCN(C(=O)Nc2ccc(=O)n(C)c2)CC1` | 9.28% |
| `NCc1cnn(-c2ccccc2C(=O)NCc2ccccc2Cl)c1` | 20.27% |
| `O=C(NCCNc1ncccn1)C1CCN(C(=O)N2CCCC2)CC1` | 1.856% |
| `O=C(CN1CCCCC1)Nc1ncc(Br)cc1Br` | 1.627% |
| `COC1CN(C(=O)Nc2ccccc2)CCC(=O)N(C)c2ccccc21` (stereo not given) | -47.68% |
| `Cc1noc2nc(C3CCN(CC4=CCCOC4)CC3)cc(C(F)F)c12.Cl` | 6.043% |
| `CCS(=O)(=O)N1CCC2(CC1)CN(CC1CCOC1)c1ccccc12.O=C(O)C(F)(F)F` (stereo not given) | -3.971% |
| `CS(=O)(=O)N[C@@H]1CCO[C@]2(CCN(C(=O)c3cnccn3)C2)C1` | -7.314% |
| `CCn1nc(C)c(CCNC(=O)c2coc(CN3CCOCC3)c2)c1C` | -11.94% |
| `CC(C)CCN1CCc2nc(N3CCOCC3)nc(NC(C)C)c2C1` | 3.906% |
| `CC1CCCCN1c1nc2c(c(=O)[nH]1)CCN(Cc1ccccc1F)C2` (stereo not given) | -5.356% |
| `CN(C)CCCNC(=O)c1cc(-c2ccc3c(c2)CCO3)n[nH]1` | -7.973% & -15.76% |
| `CCOC(=O)N1CCC(NC(C)Cc2cc(C)n[nH]2)CC1` (stereo not given) | -34.92% |
| `CCC[C@@H]1CN(Cc2ccc3c(c2)OCCO3)C[C@H]1C(=O)O` | -17.46% |
| `COc1ccc(CNC(Cc2ccsc2)c2ccc(C)cn2)c(OC)c1` (stereo not given) | 4.54% |
| `CN(Cc1nnc(C2CCC2)o1)C(C(N)=O)c1cccc(F)c1` (stereo not given) | -5.904% |
| `CC(=O)Nc1nc(CN2CCCC2Cn2cc(C)cn2)cs1` (stereo not given) | 6.012% |
| `O=C(c1ccc2c(c1)CCC2)N1C[C@@H](CN2CCOCC2)[C@@H](CO)C1` | 15.45% |
| `COc1ccc2c(c1)C1(CCN(Cc3ccoc3)CC1)N(C)CC2` | -4.804% |
| `CN(CCc1ccccc1)Cc1nc2c(cnn2C)c(=O)[nH]1` | 8.525% |
| `Cc1nc(C2CCCN(C(=O)c3ccc(N4CCCC4)nc3)C2)no1` (stereo not given) | -15.99% |
| `CN1CCN(C2COC3(CCN(Cc4cccs4)CC3)C2)CC1.O=C(O)C(F)(F)F.O=C(O)C(F)(F)F` (stereo not given) | 0.945% |
| `CCOCCCNC(=O)c1cc(C)nc(N2CCCC2)n1` | -18.2% |
| `O=C(c1csc(-c2nnc[nH]2)n1)N1CCCCC1Cn1cccn1` (stereo not given) | -4.316% |
| `CCc1nc2c(s1)C(N(C)C(=O)c1cc[nH]n1)CCC2` (stereo not given) | 5.606% |

Once more, the final 4:

- CN1CCN(C2COC3(CCN(Cc4cccs4)CC3)C2)CC1.O=C(O)C(F)(F)F.O=C(O)C(F)(F)F (stereo not given) | 0.945%
- CCOCCCNC(=O)c1cc(C)nc(N2CCCC2)n1 | -18.2%
- O=C(c1csc(-c2nnc[nH]2)n1)N1CCCCC1Cn1cccn1 (stereo not given) | -4.316%
- CCc1nc2c(s1)C(N(C)C(=O)c1cc[nH]n1)CCC2 (stereo not given) | 5.606%